Reference: the supplement of paper PMC10735217
Where a name gives a salt, the structure may show the parent alone. This is one part of the list. Single values are uncertain here, since repeats match poorly.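 Human kidney-derived cells stably carry a construct in which eight TEAD-binding elements drive luciferase, measured by luminescence in a drug-repurposing library screen. A hit is any compound whose signal exceeds the plate mean by more than five robust Z scores.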

Tested on: HEK293A TEAD-LUC reporter
Experiment: TEAD-luciferase reporter activity (YAP activation), robust Z score vs plate; higher = stronger YAP/TEAD activation
Details: 24 h

Row | SMILES | TEAD-luciferase reporter activity (compound concentration: 200 nM) | TEAD-luciferase reporter activity (compound concentration: 2 uM) | TEAD-luciferase reporter activity (compound concentration: 10 uM)
1 | CS(=O)(=O)Nc1cc(C(O)CNC(c2ccc(OC(F)F)cc2)c2ccc(OC(F)F)cc2)ccc1O (configuration not stated) | inactive: -0.267 | inactive: -0.873 | inactive: -0.0439
2 | CC1(C)Oc2ccc(C#N)cc2[C@@H](n2ccccc2=O)[C@@H]1O | inactive: -1.4 | inactive: -1.01 | inactive: -0.859
3 | CCOC(=O)Oc1c(OC)cc(C(=O)O[C@@H]2C[C@@H]3CN4CCc5c([nH]c6cc(OC)ccc56)[C@H]4C[C@@H]3[C@H](C(=O)OC)[C@H]2OC)cc1OC [Syrosingopine] | inactive: 1.87 |  | inactive: 1.74
4 | CCOC(=O)Oc1c(OC)cc(C(=O)O[C@@H]2C[C@@H]3CN4CCc5c([nH]c6cc(OC)ccc56)[C@H]4C[C@@H]3[C@H](C(=O)OC)[C@H]2OC)cc1OC |  | inactive: -1.03 | 
5 | CC[C@H](Nc1ncnc2[nH]cnc12)c1nc2cccc(F)c2c(=O)n1-c1ccccc1 [Idelalisib] | inactive: 0.67 | inactive: -0.385 | inactive: -0.313
6 | Clc1ccc(-c2nc3c4ccccc4ccn3n2)cc1 [Lotrifen] | inactive: 1.29 |  | inactive: -1.06
7 | CCCCCO[C@]1(CO)OC[C@@H](O)[C@@H](O)[C@@H]1O | inactive: 1.02 | inactive: -0.102 | inactive: 0.0451
8 | CCOC(=O)C1=C(COCCN)NC(C)=C(C(=O)OC)C1c1ccccc1Cl (configuration not stated) [amlodipine] | inactive: -0.626 | inactive: -1.49 | inactive: 0.841
9 | CCNC(=O)[C@@H]1CCCN1C(=O)[C@H](CCCN=C(N)N)NC(=O)[C@H](CC(C)C)NC(=O)[C@@H](Cc1cn(Cc2ccccc2)cn1)NC(=O)[C@H](Cc1ccc(O)cc1)NC(=O)[C@H](CO)NC(=O)[C@H](Cc1c[nH]c2ccccc12)NC(=O)[C@H](Cc1cnc[nH]1)NC(=O)[C@@H]1CCC(=O)N1 [histrelin] | inactive: 1.9 |  | inactive: -0.018
10 | CCNC(=O)[C@@H]1CCCN1C(=O)[C@H](CCCN=C(N)N)NC(=O)[C@H](CC(C)C)NC(=O)[C@@H](Cc1cn(Cc2ccccc2)cn1)NC(=O)[C@H](Cc1ccc(O)cc1)NC(=O)[C@H](CO)NC(=O)[C@H](Cc1c[nH]c2ccccc12)NC(=O)[C@H](Cc1cnc[nH]1)NC(=O)[C@@H]1CCC(=O)N1 [Histrelin Acetic Acid Salt] |  | inactive: -1.01 | 
11 | CC/C=C\C/C=C\C/C=C\C/C=C\C/C=C\C/C=C\CCC(=O)OCC [omega-3-acid ethyl esters] |  | inactive: 1.06 | 
12 | CC/C=C\C/C=C\C/C=C\C/C=C\C/C=C\C/C=C\CCC(=O)OCC [omega-3-acid ethyl esters, Pronova] | inactive: 0.655 |  | inactive: 3.24
13 | O=C(N[C@H]1c2ccccc2C[C@H]1c1ccc(O)cc1)C(c1ccccc1)c1ccccc1 | inactive: 1.37 | inactive: -1.52 | inactive: -1.34
14 | O=C(NCCN1CCC(OC(c2ccccc2)c2ccccc2)CC1)c1cc2cccc(OCc3cccnc3)c2cc1O | inactive: 0.767 | inactive: -0.604 | inactive: -0.94
15 | Clc1ccc(C(c2ccccc2Cl)C(Cl)Cl)cc1 (configuration not stated) [Mitotane] | inactive: 0.307 | inactive: 1.35 | inactive: -0.802
16 | C=CC1=C(C)c2cc3[nH]c(cc4nc(cc5[nH]c(cc1n2)c(C)c5CCC(=O)O)C(CCC(=O)OC)=C4C)[C@@]1(C)C3=CC=C(C(=O)OC)[C@H]1C(=O)OC | inactive: -1.99 | inactive: -2.11 | inactive: 0.0158
17 | CNC(=O)[C@H](Cc1ccccc1)NC(=O)[C@H](CC(C)C)[C@H](CSc1ccccc1)C(=O)NO | inactive: -0.849 | inactive: 0.245 | inactive: 0.673
18 | CCCCNc1c(C(=O)OCC)c(C)nc2c1cnn2CC [tracazolate] | inactive: -0.35 | inactive: -2.53 | inactive: 0.0557
19 | C=C(C)Cn1c(N)cc(=O)n(C)c1=O | inactive: -0.662 | inactive: 0.135 | inactive: 3.93
20 | c1ccc2c(c1)CC2CCN1CCN(c2cccc3c2OCCO3)CC1 (configuration not stated) | inactive: -0.885 | inactive: 0.161 | inactive: 2.85
21 | O=c1ccc2ccccc2o1 [Coumarin] | inactive: -0.0797 | inactive: -1.56 | inactive: 0.00991
22 | Cc1cccc(C)c1OCCN1CCC(C(O)(c2ccc(F)cc2)c2ccc(F)cc2)CC1 | inactive: -1.57 | inactive: -0.075 | inactive: -0.494
23 | N#Cc1cccc(C2C=C(C(F)(F)F)NC3=C2C(=O)CCC3)c1 (configuration not stated) | inactive: 0.633 | inactive: 0.819 | inactive: 4.99
24 | CCOC(=O)[C@H](CCc1ccccc1)N[C@@H](C)C(=O)N1C2CCC(CC2)[C@H]1C(=O)O | inactive: -1.66 | inactive: 0.247 | inactive: -0.0945
25 | CC1=C2C[C@H]3[C@@H](CC[C@@H]4C[C@H](NS(C)(=O)=O)CC[C@@]43C)[C@@H]2CC[C@@]2(C1)O[C@@H]1C[C@H](C)CN[C@H]1[C@H]2C [Patidegib] | inactive: -0.749 |  | inactive: 0.105
26 | CC(C)C[C@H](NC(=O)[C@H](CO)NC(=O)[C@@H](NC(=O)CNC(=O)[C@@H](N)CCCCN)C(C)C)C(=O)N[C@@H](CO)C(=O)N[C@@H](Cc1ccc(O)cc1)C(=O)N[C@@H](CCCNC(=N)N)C(=O)NCCCCC(NC(=O)[C@H](CCCNC(=N)N)NC(=O)[C@H](Cc1ccc(O)cc1)NC(=O)[C@H](CO)NC(=O)[C@H](CC(C)C)NC(=O)[C@H](CO)NC(=O)[C@@H](NC(=O)CNC(=O)[C@@H](N)CCCCN)C(C)C)C(N)=O (some centres not stated) | inactive: -0.184 | inactive: 0.413 | inactive: 0.0724

Reformatted in markdown: entries from further up.

| Row | SMILES | TEAD-luciferase reporter activity (compound concentration: 200 nM) | TEAD-luciferase reporter activity (compound concentration: 2 uM) | TEAD-luciferase reporter activity (compound concentration: 10 uM) |
| --- | --- | --- | --- | --- |
| 9 | CCNC(=O)[C@@H]1CCCN1C(=O)[C@H](CCCN=C(N)N)NC(=O)[C@H](CC(C)C)NC(=O)[C@@H](Cc1cn(Cc2ccccc2)cn1)NC(=O)[C@H](Cc1ccc(O)cc1)NC(=O)[C@H](CO)NC(=O)[C@H](Cc1c[nH]c2ccccc12)NC(=O)[C@H](Cc1cnc[nH]1)NC(=O)[C@@H]1CCC(=O)N1 [histrelin] | inactive: 1.9 |  | inactive: -0.018 |
| 10 | CCNC(=O)[C@@H]1CCCN1C(=O)[C@H](CCCN=C(N)N)NC(=O)[C@H](CC(C)C)NC(=O)[C@@H](Cc1cn(Cc2ccccc2)cn1)NC(=O)[C@H](Cc1ccc(O)cc1)NC(=O)[C@H](CO)NC(=O)[C@H](Cc1c[nH]c2ccccc12)NC(=O)[C@H](Cc1cnc[nH]1)NC(=O)[C@@H]1CCC(=O)N1 [Histrelin Acetic Acid Salt] |  | inactive: -1.01 |  |
